From publication doi:10.1101/2025.09.17.676845

Chains of the proteins cited; added tags and fusions are not shown.
UniProt Q13283: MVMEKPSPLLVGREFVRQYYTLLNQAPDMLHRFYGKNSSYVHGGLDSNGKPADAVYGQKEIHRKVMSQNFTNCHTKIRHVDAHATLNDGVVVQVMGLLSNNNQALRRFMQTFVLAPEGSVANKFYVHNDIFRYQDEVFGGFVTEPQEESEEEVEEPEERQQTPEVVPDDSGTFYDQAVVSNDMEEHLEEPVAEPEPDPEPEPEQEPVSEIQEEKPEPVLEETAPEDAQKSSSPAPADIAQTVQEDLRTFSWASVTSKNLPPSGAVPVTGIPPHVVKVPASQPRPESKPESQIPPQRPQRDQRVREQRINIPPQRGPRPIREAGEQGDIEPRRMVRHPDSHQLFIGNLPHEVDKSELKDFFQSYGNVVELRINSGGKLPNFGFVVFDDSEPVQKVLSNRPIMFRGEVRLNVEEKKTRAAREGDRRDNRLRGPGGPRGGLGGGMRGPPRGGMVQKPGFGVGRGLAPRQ
UniProt P60228: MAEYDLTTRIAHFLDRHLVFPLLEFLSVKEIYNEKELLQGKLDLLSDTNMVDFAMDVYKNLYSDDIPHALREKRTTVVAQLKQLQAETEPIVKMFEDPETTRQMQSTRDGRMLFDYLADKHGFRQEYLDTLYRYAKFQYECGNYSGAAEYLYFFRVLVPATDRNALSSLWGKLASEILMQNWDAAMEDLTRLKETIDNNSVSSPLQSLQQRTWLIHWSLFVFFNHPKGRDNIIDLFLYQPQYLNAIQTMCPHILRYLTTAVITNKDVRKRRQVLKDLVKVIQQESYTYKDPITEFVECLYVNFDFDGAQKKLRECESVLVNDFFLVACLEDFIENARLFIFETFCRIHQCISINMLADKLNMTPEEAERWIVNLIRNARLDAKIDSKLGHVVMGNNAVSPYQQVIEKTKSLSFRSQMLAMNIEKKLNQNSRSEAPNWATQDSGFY
UniProt O75821: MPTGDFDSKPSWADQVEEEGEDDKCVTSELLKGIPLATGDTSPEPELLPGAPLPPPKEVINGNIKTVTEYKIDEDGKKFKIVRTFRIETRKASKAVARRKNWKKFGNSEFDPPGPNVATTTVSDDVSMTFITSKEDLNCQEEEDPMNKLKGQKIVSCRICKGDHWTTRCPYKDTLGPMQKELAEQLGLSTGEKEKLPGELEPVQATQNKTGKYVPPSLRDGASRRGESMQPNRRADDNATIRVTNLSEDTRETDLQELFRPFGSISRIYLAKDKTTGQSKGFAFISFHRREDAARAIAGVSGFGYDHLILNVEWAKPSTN
UniProt Q9Y520: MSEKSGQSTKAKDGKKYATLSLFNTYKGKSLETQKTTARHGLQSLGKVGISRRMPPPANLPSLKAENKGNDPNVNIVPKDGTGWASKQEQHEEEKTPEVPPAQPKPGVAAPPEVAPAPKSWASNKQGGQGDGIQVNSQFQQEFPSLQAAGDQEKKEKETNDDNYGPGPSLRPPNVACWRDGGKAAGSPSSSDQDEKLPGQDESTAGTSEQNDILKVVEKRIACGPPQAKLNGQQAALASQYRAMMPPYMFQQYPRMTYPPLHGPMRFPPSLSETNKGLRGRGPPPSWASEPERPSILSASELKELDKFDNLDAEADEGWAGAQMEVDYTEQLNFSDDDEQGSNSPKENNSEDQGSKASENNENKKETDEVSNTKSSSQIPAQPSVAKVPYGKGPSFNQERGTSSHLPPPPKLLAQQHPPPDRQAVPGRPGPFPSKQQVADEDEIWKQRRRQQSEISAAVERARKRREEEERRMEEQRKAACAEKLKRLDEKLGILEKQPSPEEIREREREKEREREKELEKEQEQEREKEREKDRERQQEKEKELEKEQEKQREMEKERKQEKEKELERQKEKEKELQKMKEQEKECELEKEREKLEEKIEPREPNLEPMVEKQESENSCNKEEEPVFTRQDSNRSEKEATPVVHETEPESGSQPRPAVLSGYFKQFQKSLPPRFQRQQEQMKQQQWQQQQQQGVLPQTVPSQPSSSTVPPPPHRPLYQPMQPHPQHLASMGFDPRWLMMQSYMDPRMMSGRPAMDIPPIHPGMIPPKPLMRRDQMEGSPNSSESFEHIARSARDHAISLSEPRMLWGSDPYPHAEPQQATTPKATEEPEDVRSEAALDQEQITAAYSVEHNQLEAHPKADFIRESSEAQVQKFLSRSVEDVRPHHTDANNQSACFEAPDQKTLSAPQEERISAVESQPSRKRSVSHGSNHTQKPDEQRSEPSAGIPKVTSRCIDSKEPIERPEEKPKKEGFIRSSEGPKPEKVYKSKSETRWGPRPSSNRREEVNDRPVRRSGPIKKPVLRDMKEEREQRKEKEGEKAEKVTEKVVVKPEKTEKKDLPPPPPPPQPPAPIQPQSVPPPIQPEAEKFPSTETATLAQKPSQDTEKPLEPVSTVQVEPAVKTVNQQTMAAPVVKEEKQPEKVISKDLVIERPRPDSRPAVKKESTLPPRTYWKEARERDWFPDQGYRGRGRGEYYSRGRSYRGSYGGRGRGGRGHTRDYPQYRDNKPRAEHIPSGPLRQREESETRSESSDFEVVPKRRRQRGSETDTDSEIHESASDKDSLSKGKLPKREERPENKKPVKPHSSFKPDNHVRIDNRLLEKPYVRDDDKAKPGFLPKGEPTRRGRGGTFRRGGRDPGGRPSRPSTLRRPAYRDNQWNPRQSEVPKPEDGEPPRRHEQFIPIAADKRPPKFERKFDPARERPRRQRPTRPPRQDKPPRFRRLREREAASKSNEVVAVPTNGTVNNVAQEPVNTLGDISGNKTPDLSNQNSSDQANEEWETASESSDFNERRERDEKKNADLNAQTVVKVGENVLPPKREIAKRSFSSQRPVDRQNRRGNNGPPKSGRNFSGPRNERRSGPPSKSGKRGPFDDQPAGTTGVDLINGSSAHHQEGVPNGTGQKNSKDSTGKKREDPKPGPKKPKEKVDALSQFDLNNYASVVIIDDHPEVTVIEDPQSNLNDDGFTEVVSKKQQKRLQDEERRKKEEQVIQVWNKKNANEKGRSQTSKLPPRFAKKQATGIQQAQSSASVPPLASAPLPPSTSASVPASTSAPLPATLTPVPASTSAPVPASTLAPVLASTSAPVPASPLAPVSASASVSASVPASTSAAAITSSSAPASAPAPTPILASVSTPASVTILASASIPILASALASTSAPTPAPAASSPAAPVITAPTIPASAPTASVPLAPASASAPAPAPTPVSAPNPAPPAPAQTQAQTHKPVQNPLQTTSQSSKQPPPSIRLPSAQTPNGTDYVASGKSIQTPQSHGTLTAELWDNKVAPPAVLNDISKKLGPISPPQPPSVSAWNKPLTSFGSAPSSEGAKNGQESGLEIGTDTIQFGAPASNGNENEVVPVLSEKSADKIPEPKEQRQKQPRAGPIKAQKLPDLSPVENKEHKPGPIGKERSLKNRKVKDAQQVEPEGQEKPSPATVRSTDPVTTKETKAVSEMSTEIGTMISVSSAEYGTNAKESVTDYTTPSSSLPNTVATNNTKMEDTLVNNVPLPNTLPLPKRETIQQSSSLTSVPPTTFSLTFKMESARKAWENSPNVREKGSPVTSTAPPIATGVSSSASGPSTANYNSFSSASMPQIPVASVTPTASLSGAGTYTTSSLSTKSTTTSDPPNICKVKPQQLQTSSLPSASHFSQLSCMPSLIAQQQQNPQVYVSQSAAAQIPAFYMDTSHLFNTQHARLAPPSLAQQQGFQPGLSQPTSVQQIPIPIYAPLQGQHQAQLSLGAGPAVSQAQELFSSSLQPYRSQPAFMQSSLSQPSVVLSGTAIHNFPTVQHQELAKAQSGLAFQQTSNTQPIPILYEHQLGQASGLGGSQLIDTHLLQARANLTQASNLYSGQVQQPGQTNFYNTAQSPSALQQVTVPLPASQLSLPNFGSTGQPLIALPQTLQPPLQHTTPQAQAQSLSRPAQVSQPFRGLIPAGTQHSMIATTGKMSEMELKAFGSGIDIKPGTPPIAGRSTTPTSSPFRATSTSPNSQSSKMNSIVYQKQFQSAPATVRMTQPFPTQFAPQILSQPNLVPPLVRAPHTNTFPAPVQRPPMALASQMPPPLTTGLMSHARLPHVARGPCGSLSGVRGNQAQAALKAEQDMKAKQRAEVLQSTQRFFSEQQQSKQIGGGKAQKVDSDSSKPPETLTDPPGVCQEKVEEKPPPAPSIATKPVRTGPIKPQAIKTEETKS
UniProt Q14157: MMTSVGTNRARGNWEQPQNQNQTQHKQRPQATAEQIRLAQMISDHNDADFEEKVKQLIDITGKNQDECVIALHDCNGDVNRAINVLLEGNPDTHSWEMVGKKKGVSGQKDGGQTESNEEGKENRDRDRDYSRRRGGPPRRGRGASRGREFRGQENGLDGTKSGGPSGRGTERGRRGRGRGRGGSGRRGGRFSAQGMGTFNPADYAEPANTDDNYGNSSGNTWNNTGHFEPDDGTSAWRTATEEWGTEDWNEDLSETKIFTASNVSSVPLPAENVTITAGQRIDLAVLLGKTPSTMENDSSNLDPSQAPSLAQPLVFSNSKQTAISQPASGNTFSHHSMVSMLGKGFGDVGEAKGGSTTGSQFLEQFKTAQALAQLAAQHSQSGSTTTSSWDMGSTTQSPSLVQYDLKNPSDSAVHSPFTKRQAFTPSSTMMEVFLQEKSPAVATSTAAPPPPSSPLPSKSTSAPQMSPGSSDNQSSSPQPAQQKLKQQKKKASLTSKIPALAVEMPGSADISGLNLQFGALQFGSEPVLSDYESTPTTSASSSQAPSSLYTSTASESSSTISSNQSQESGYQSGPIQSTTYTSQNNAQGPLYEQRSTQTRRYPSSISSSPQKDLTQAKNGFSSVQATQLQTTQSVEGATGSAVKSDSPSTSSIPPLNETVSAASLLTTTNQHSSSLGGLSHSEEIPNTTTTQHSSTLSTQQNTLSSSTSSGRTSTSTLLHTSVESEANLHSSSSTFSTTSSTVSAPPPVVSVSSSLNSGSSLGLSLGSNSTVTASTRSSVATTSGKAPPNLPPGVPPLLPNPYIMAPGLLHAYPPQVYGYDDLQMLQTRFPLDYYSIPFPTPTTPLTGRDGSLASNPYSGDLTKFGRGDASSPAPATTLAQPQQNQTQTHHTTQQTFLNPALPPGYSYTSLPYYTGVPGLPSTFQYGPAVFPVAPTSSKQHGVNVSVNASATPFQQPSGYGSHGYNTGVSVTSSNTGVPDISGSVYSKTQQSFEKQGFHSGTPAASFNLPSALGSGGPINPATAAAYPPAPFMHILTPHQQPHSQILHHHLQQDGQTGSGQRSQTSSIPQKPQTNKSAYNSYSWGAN

target: APEX2-tagged WT G3BP1 (human) (UniProt Q13283); assay: proximity labelling

| binding | Molecule |
| --- | --- |
| binds | EIF3E (from UniProt P60228 1-445) |
| binds | EIF3G (from UniProt O75821 1-320) |
| binds | PRRC2C (from UniProt Q9Y520 1-2896) |
| binds | UBAP2L (from UniProt Q14157 1-1087) |
| binds | ATXN2L (protein, UniProt Q8WWM7 1-1075) MLKPQPLQQPSQPQQPPPTQQAVARRPPGGTSPPNGGLPGPLATSAAPPGPPAAASPCLGPVAAAGSGLRRGAEGILAPQPPPPQQHQERPGAAAIGSARGQSTGKGPPQSPVFEGVYNNSRMLHFLTAVVGSTCDVKVKNGTTYEGIFKTLSSKFELAVDAVHRKASEPAGGPRREDIVDTMVFKPSDVMLVHFRNVDFNYATKDKFTDSAIAMNSKVNGEHKEKVLQRWEGGDSNSDDYDLESDMSNGWDPNEMFKFNEENYGVKTTYDSSLSSYTVPLEKDNSEEFRQRELRAAQLAREIESSPQYRLRIAMENDDGRTEEEKHSAVQRQGSGRESPSLASREGKYIPLPQRVREGPRGGVRCSSSRGGRPGLSSLPPRGPHHLDNSSPGPGSEARGINGGPSRMSPKAQRPLRGAKTLSSPSNRPSGETSVPPPPAVGRMYPPRSPKSAAPAPISASCPEPPIGSAVPTSSASIPVTSSVSDPGVGSISPASPKISLAPTDVKELSTKEPGRTLEPQELARIAGKVPGLQNEQKRFQLEELRKFGAQFKLQPSSSPENSLDPFPPRILKEEPKGKEKEVDGLLTSEPMGSPVSSKTESVSDKEDKPPLAPSGGTEGPEQPPPPCPSQTGSPPVGLIKGEDKDEGPVAEQVKKSTLNPNAKEFNPTKPLLSVNKSTSTPTSPGPRTHSTPSIPVLTAGQSGLYSPQYISYIPQIHMGPAVQAPQMYPYPVSNSVPGQQGKYRGAKGSLPPQRSDQHQPASAPPMMQAAAAAGPPLVAATPYSSYIPYNPQQFPGQPAMMQPMAHYPSQPVFAPMLQSNPRMLTSGSHPQAIVSSSTPQYPSAEQPTPQALYATVHQSYPHHATQLHAHQPQPATTPTGSQPQSQHAAPSPVQHQAGQAPHLGSGQPQQNLYHPGALTGTPPSLPPGPSAQSPQSSFPQPAAVYAIHHQQLPHGFTNMAHVTQAHVQTGITAAPPPHPGAPHPPQVMLLHPPQSHGGPPQGAVPQSGVPALSASTPSPYPYIGHPQGEQPGQAPGFPGGADDRIREFSLAGGIWHGRAEGLQVGQDARVLGGE |
| binds | TIAL1 (protein, UniProt Q01085 1-375) MMEDDGQPRTLYVGNLSRDVTEVLILQLFSQIGPCKSCKMITEHTSNDPYCFVEFYEHRDAAAALAAMNGRKILGKEVKVNWATTPSSQKKDTSNHFHVFVGDLSPEITTEDIKSAFAPFGKISDARVVKDMATGKSKGYGFVSFYNKLDAENAIVHMGGQWLGGRQIRTNWATRKPPAPKSTQENNTKQLRFEDVVNQSSPKNCTVYCGGIASGLTDQLMRQTFSPFGQIMEIRVFPEKGYSFVRFSTHESAAHAIVSVNGTTIEGHVVKCYWGKESPDMTKNFQQVDYSQWGQWSQVYGNPQQYGQYMANGWQVPPYGVYGQPWNQQGFGVDQSPSAAWMGGFGAQPPQGQAPPPVIPPPNQAGYGMASYQTQ |
| binds | NUFIP2 (protein, UniProt Q7Z417 1-695) MEEKPGQPQPQHHHSHHHPHHHPQQQQQQPHHHHHYYFYNHSHNHHHHHHHQQPHQYLQHGAEGSPKAQPKPLKHEQKHTLQQHQETPKKKTGYGELNGNAGEREISLKNLSSDEATNPISRVLNGNQQVVDTSLKQTVKANTFGKAGIKTKNFIQKNSMDKKNGKSYENKSGENQSVDKSDTIPIPNGVVTNNSGYITNGYMGKGADNDGSGSESGYTTPKKRKARRNSAKGCENLNIVQDKIMQQETSVPTLKQGLETFKPDYSEQKGNRVDGSKPIWKYETGPGGTSRGKPAVGDMLRKSSDSKPGVSSKKFDDRPKGKHASAVASKEDSWTLFKPPPVFPVDNSSAKIVPKISYASKVKENLNKTIQNSSVSPTSSSSSSSSTGETQTQSSSRLSQVPMSALKSVTSANFSNGPVLAGTDGNVYPPGGQPLLTTAANTLTPISSGTDSVLQDMSLTSAAVEQIKTSLFIYPSNMQTMLLSTAQVDLPSQTDQQNLGDIFQNQWGLSFINEPSAGPETVTGKSSEHKVMEVTFQGEYPATLVSQGAEIIPSGTEHPVFPKAYELEKRTSPQVLGSILKSGTTSESGALSLEPSHIGDLQKADTSSQGALVFLSKDYEIESQNPLASPTNTLLGSAKEQRYQRGLERNDSWGSFDLRAAIVYHTKEMESIWNLQKQDPKRIITYNEAMDSPDQ |

No constants are given. Whether binding was seen depends on the method and setting. In cells and extracts the contact can be indirect. Here binding means that the protein was enriched with, or labelled near, the bait; the list need not be complete.
